{
  "source": "patent US7906486B2",
  "about": "“Method of treating or preventing tissue deterioration, injury or damage due to disease of mucosa” (SciClone Pharmaceuticals, Inc., priority 2007, dated 2011)",
  "tested_on": "oral mucositis induced by acute radiation (40 Gy, left buccal cheek pouch)",
  "test": "Oral mucositis induced by acute radiation in hamsters, mucositis scoring (Example 2, SCI-02)",
  "assay_type": "in vivo, Syrian Golden Hamsters",
  "parameters": "key: 0: Pouch completely healthy. No erythema or vasodilation.; 1: Light to severe erythema and vasodilation. No erosion of mucosa.; 2: Severe erythema and vasodilation. Erosion of superficial aspects of mucosa leaving denuded areas. Decreased stippling of mucosa.; 3: Formation of off-white ulcers in one or more places. Ulcers may have a yellow/gray due to pseudomembrane. Cumulative size of ulcers should equal about ¼ of the pouch. Severe erythema and vasodilation.; 4: Cumulative seize of ulcers should equal about ½ of the pouch. Loss of pliability. Severe erythema and vasodilation.; 5: Virtually all of pouch is ulcerated. Loss of pliability (pouch can only partially be extracted from mouth)",
  "details": "individual animals, two scores per animal",
  "excerpt": "The acute radiation model in hamsters, developed by the Principle Investigator, has proven to be an accurate, efficient and cost-effective technique to provide a preliminary evaluation of anti-mucositis compounds. The course of mucositis in this model is well defined and results in peak scores approximately 14-16 Days following radiation. The acute model has little systemic toxicity, resulting in few hamster deaths, thus permitting the use of smaller groups (N=7-8) for initial efficacy studies. It has also been used to study specific mechanistic elements in the pathogenesis of mucositis. Molecules that show efficacy in the acute radiation model may be further evaluated in the more complex models of fractionated radiation, chemotherapy, or concomitant therapy.\nIn this study, an acute radiation dose of 40 Gy on day 0 was administered. Clinically significant mucositis was observed on days 12 through 28.\nForty (40) Syrian Golden Hamsters were given an acute radiation dose of 40 Gy directed to their left buccal cheek pouch on day 0. Test material SCV-07 was given by sub-cutaneous injection at 100 μg/kg or 1 mg/kg once or twice daily. Dosing began one day before radiation (day −1) and continued until day 20. Mucositis was evaluated clinically starting on day 6, and continuing on alternate days until day 28.\nThe grade of mucositis was scored, beginning day 6, and for every second day thereafter, through and including day 28. The effect on mucositis of each drug treatment compared to placebo was assessed according to the following parameters:\nOn each evaluation day, the number of animals with a blinded mucositis score of ≧3 in each drug treatment group was compared to the control group. Differences were compared on a cumulative basis and statistical significance was determined by chi-square analysis. Efficacy, in this analysis, is defined by a significant reduction in the number of days that a group of animals had ulcerations (scores ≧3) when compared to the control group. This same test was also used to evaluate differences between different drug treatment groups.\nFor each evaluation day the scores of the control group were compared to those of the treated groups using non-parametric rank sum analysis. Treatment success was considered as a statistically significant lowering of scores in the treated group on 2 or more days from day 6 to day 28.\nForty Syrian Golden Hamsters were divided into five (5) groups of eight (8) animals each. All animals received a single dose of acute radiation of 40 Gy directed to their left buccal cheek pouch on day 0. This was accomplished by anesthetizing the animals and everting the left buccal pouch, while protecting the rest of the animals with a lead shield. Test materials were given by sub-cutaneous injection once daily as detailed in Table 5. Mucositis was evaluated clinically starting on Day 6, and continuing on alternate days until day 28.\nMucositis was induced using a standardized acute radiation protocol. A single dose of radiation (40 Gy/dose) was administered to all animals on day 0. Radiation was generated with a 160 kilovolt potential (15-ma) source at a focal distance of 30 cm, hardened with a 0.35 mm Cu filtration system. Irradiation targeted the left buccal pouch mucosa at a rate of 3.2 Gy/minute. Prior to irradiation, animals were anesthetized with an intraperitoneal injection of Ketamine (160 mg/kg) and Xylazine (8 mg/kg). The left buccal pouch was everted, fixed and isolated using a lead shield to protect all other parts of the hamster's body.\nThe mucositis score, weight change and survival were measured throughout the study as described above. For the evaluation of mucositis, the animals were anesthetized with an inhalation anesthetic, and the left pouch everted. Mucositis was scored visually by comparison to a validated photographic scale, ranging from 0 for normal, to 5 for severe ulceration (clinical scoring). In descriptive terms, this scale is defined as follows: […]",
  "note": "Where “and” joins values, the source holds several entries; their conditions need not be identical. Equal entries are not always repeated. The source gives many values for each of these; only a part stands here.",
  "data": [
    {"compound": "N[C@H](CCC(=O)N[C@@H](Cc1c[nH]c2ccccc12)C(=O)O)C(=O)O", "note": "[SCV-07, γ-D-glutamyl-L-tryptophan]", "values": [
      {"measurement": "Mucositis score", "setting": "Group 2 (SCV-07 100 μg/kg once daily, days -1 to 20), day 12", "value": 1},
      {"measurement": "Mucositis score", "setting": "Group 2 (SCV-07 100 μg/kg once daily, days -1 to 20), day 14", "value": "1 and 3"},
      {"measurement": "Mucositis score", "setting": "Group 2 (SCV-07 100 μg/kg once daily, days -1 to 20), day 16", "value": 3},
      {"measurement": "Mucositis score", "setting": "Group 2 (SCV-07 100 μg/kg once daily, days -1 to 20), day 20", "value": 1},
      {"measurement": "Mucositis score", "setting": "Group 3 (SCV-07 100 μg/kg twice daily, days -1 to 20), day 6", "value": "0 (8×) and 1 (8×)"},
      {"measurement": "Mucositis score", "setting": "Group 3 (SCV-07 100 μg/kg twice daily, days -1 to 20), day 8", "value": "1 (14×) and 0 (2×)"},
      {"measurement": "Mucositis score", "setting": "Group 3 (SCV-07 100 μg/kg twice daily, days -1 to 20), day 10", "value": "2 (8×) and 1 (8×)"},
      {"measurement": "Mucositis score", "setting": "Group 3 (SCV-07 100 μg/kg twice daily, days -1 to 20), day 12", "value": "2 (15×) and 1"},
      {"measurement": "Mucositis score", "setting": "Group 3 (SCV-07 100 μg/kg twice daily, days -1 to 20), day 14", "value": "2 (8×) and 3 (8×)"},
      {"measurement": "Mucositis score", "setting": "Group 3 (SCV-07 100 μg/kg twice daily, days -1 to 20), day 16", "value": "3 (9×) and 1 and 2 (6×)"},
      {"measurement": "Mucositis score", "setting": "Group 3 (SCV-07 100 μg/kg twice daily, days -1 to 20), day 18", "value": "2 (14×) and 3 and 1"},
      {"measurement": "Mucositis score", "setting": "Group 3 (SCV-07 100 μg/kg twice daily, days -1 to 20), day 20", "value": "2 (14×) and 1 (2×)"},
      {"measurement": "Mucositis score", "setting": "Group 3 (SCV-07 100 μg/kg twice daily, days -1 to 20), day 22", "value": "1 (3×) and 2 (13×)"},
      {"measurement": "Mucositis score", "setting": "Group 3 (SCV-07 100 μg/kg twice daily, days -1 to 20), day 24", "value": "2 (15×) and 1"},
      {"measurement": "Mucositis score", "setting": "Group 3 (SCV-07 100 μg/kg twice daily, days -1 to 20), day 26", "value": "2 (14×) and 1 (2×)"},
      {"measurement": "Mucositis score", "setting": "Group 3 (SCV-07 100 μg/kg twice daily, days -1 to 20), day 28", "value": "1 (10×) and 2 (6×)"},
      {"measurement": "Mucositis score", "setting": "Group 4 (SCV-07 1 mg/kg once daily, days -1 to 20), day 6, 1 mg/kg", "value": "1 (10×) and 0 (6×)"},
      {"measurement": "Mucositis score", "setting": "Group 4 (SCV-07 1 mg/kg once daily, days -1 to 20), day 8", "value": 1},
      {"measurement": "Mucositis score", "setting": "Group 4 (SCV-07 1 mg/kg once daily, days -1 to 20), day 10, 1 mg/kg", "value": "2 (8×) and 1 (8×)"},
      {"measurement": "Mucositis score", "setting": "Group 4 (SCV-07 1 mg/kg once daily, days -1 to 20), day 12", "value": 2},
      {"measurement": "Mucositis score", "setting": "Group 4 (SCV-07 1 mg/kg once daily, days -1 to 20), day 14, 1 mg/kg", "value": "3 (14×) and 2 (2×)"},
      {"measurement": "Mucositis score", "setting": "Group 4 (SCV-07 1 mg/kg once daily, days -1 to 20), day 16, 1 mg/kg", "value": "3 (12×) and 2 (4×)"},
      {"measurement": "Mucositis score", "setting": "Group 4 (SCV-07 1 mg/kg once daily, days -1 to 20), day 18, 1 mg/kg", "value": "3 (10×) and 2 (6×)"},
      {"measurement": "Mucositis score", "setting": "Group 4 (SCV-07 1 mg/kg once daily, days -1 to 20), day 20, 1 mg/kg", "value": "3 (7×) and 2 (8×) and 1"},
      {"measurement": "Mucositis score", "setting": "Group 4 (SCV-07 1 mg/kg once daily, days -1 to 20), day 22, 1 mg/kg", "value": "3 (5×) and 2 (10×) and 1"},
      {"measurement": "Mucositis score", "setting": "Group 4 (SCV-07 1 mg/kg once daily, days -1 to 20), day 24, 1 mg/kg", "value": "3 (5×) and 2 (10×) and 1"},
      {"measurement": "Mucositis score", "setting": "Group 4 (SCV-07 1 mg/kg once daily, days -1 to 20), day 26, 1 mg/kg", "value": "3 and 2 (14×) and 1"},
      {"measurement": "Mucositis score", "setting": "Group 4 (SCV-07 1 mg/kg once daily, days -1 to 20), day 28, 1 mg/kg", "value": "3 and 1 (8×) and 2 (7×)"},
      {"measurement": "Mucositis score", "setting": "Group 5 (SCV-07 1 mg/kg twice daily, days -1 to 20), day 6, 1 mg/kg", "value": "1 (12×) and 0 (4×)"},
      {"measurement": "Mucositis score", "setting": "Group 5 (SCV-07 1 mg/kg twice daily, days -1 to 20), day 8", "value": 1},
      {"measurement": "Mucositis score", "setting": "Group 5 (SCV-07 1 mg/kg twice daily, days -1 to 20), day 10, 1 mg/kg", "value": "2 (8×) and 1 (8×)"},
      {"measurement": "Mucositis score", "setting": "Group 5 (SCV-07 1 mg/kg twice daily, days -1 to 20), day 12, 1 mg/kg", "value": "2 (14×) and 3 (2×)"},
      {"measurement": "Mucositis score", "setting": "Group 5 (SCV-07 1 mg/kg twice daily, days -1 to 20), day 14, 1 mg/kg", "value": "2 (6×) and 3 (10×)"},
      {"measurement": "Mucositis score", "setting": "Group 5 (SCV-07 1 mg/kg twice daily, days -1 to 20), day 16, 1 mg/kg", "value": "2 (10×) and 3 (6×)"},
      {"measurement": "Mucositis score", "setting": "Group 5 (SCV-07 1 mg/kg twice daily, days -1 to 20), day 18, 1 mg/kg", "value": "2 (10×) and 3 (6×)"},
      {"measurement": "Mucositis score", "setting": "Group 5 (SCV-07 1 mg/kg twice daily, days -1 to 20), day 20", "value": 2},
      {"measurement": "Mucositis score", "setting": "Group 5 (SCV-07 1 mg/kg twice daily, days -1 to 20), day 22, 1 mg/kg", "value": "2 (15×) and 1"},
      {"measurement": "Mucositis score", "setting": "Group 5 (SCV-07 1 mg/kg twice daily, days -1 to 20), day 24", "value": 2},
      {"measurement": "Mucositis score", "setting": "Group 5 (SCV-07 1 mg/kg twice daily, days -1 to 20), day 26", "value": 2},
      {"measurement": "Mucositis score", "setting": "Group 5 (SCV-07 1 mg/kg twice daily, days -1 to 20), day 28, 1 mg/kg", "value": "2 (7×) and 1 (9×)"}
    ]}
  ]
}
